# Measurements: the supplement of paper PMC9135407
# Values joined by “and” are separate entries in the source; they are usually repeats but may differ in a detail not shown here. Equal values may be shown once. Where a name gives a salt, the structure may show the parent alone. ± gives the standard deviation of the averaged measurements. The list shows a part of the results. Plates or batches differ in their baseline, so values are only roughly comparable.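 Culture-activated primary human stellate myofibroblasts, where regained lipid droplets signal inactivation. Value: share of Hoechst-counted cells above a per-plate Bodipy cutoff, in duplicate wells, with DMSO negative and nortriptyline positive controls on each plate. Hits: a control-normalized score above the plate's top-tenth-percentile nortriptyline wells, or one of a plate's three best wells. Final well concentrations are not given.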
# Tested on: primary human hepatic stellate cells (donor 1)
# Experiment: percent Bodipy-positive cells; higher = more lipid droplet accumulation
# Settings: 48 h
# [1] = library stock concentration: 80 uM
# [2] = library stock concentration: 10 mM
# [3] = library stock concentration: 3.33 mM
# [4] = library stock concentration: 1 mM
# [5] = library stock concentration: 4.9 mM
compound,measurement,setting,value
CN1CCN(c2ccc3nc(-c4c(N)c5c(F)cccc5[nH]c4=O)[nH]c3c2)CC1,percent Bodipy-positive cells,[1],73.1 ± 0.96%
CN1CCN(c2ccc3nc(-c4c(N)c5c(F)cccc5[nH]c4=O)[nH]c3c2)CC1 [Dovitinib (TKI-258) Dilactic Acid],percent Bodipy-positive cells,[2],88.7 ± 15%
O=c1[nH]c(=O)n([C@H]2C[C@H](O)[C@@H](CO)O2)cc1I,percent Bodipy-positive cells,[2],27.6 ± 1.7%
O=c1[nH]c(=O)n([C@H]2C[C@H](O)[C@@H](CO)O2)cc1I [Idoxuridine],percent Bodipy-positive cells,,28.3 ± 1.5%
same,percent Bodipy-positive cells,[3],17.3 ± 6.9%
same,percent Bodipy-positive cells,[2],13.02 ± 0.084%
CCCCC/C=C\C/C=C\CCCCCCCC(=O)O [Linoleic acid],percent Bodipy-positive cells,[4],9.67 ± 4.5%
CCCCC/C=C\C/C=C\CCCCCCCC(=O)O [Linoleic Acid (peroxide free)],percent Bodipy-positive cells,[4],6.03 ± 1%
Cc1cccc(N(C)C(=S)Oc2ccc3ccccc3c2)c1 [Tolnaftate],percent Bodipy-positive cells,,33.6 ± 2.6%
same,percent Bodipy-positive cells,[3],11.9 ± 0.27%
same,percent Bodipy-positive cells,[2],18.4% and 22.6%
C=CCNC1=C2C[C@@H](C)C[C@H](OC)[C@H](O)[C@@H](C)/C=C(\C)[C@H](OC(N)=O)[C@@H](OC)/C=C\C=C(/C)C(=O)NC(=CC1=O)C2=O [17-AAG (Tanespimycin)],percent Bodipy-positive cells,[3],73.2 ± 7.5%
N[C@@H](COP(=O)(O)O)C(=O)O [O-Phospho-L-serine],percent Bodipy-positive cells,[2],20.9 ± 2.5%
N[C@@H](COP(=O)(O)O)C(=O)O,percent Bodipy-positive cells,[2],27.7 ± 8.1%
CCCCc1oc2ccccc2c1C(=O)c1cc(I)c(OCCN(CC)CC)c(I)c1 [Amiodarone hydrochloride],percent Bodipy-positive cells,,60.7 ± 3%
same,percent Bodipy-positive cells,library stock concentration: 2.9 mM,51.7 ± 6.2%
CCCCc1oc2ccccc2c1C(=O)c1cc(I)c(OCCN(CC)CC)c(I)c1 [Amiodarone HCl],percent Bodipy-positive cells,[3],37.02 ± 0.32%
CCCCc1oc2ccccc2c1C(=O)c1cc(I)c(OCCN(CC)CC)c(I)c1,percent Bodipy-positive cells,library stock concentration: 7.3 mM,61.9 ± 33%
same,percent Bodipy-positive cells,library stock concentration: 9.5 mM,88.2 ± 1.2%
CCCCc1oc2ccccc2c1C(=O)c1cc(I)c(OCCN(CC)CC)c(I)c1 [Amiodarone],percent Bodipy-positive cells,library stock concentration: 3.1 mM,34.7 ± 1.9%
O=C(Nc1cccnc1)N1CCC(Cc2cccc(Oc3ccc(C(F)(F)F)cn3)c2)CC1,percent Bodipy-positive cells,[3],10.3 ± 0.22%
same,percent Bodipy-positive cells,[2],28.5 ± 1.8%
O=C(Nc1ccc([N+](=O)[O-])cc1Cl)c1cc(Cl)ccc1O [Niclosamide],percent Bodipy-positive cells,,72.62 ± 0.38%
CCCCCCCC/C=C\CCCCCCCC(=O)NCC [Oleoyl Ethyl Amide],percent Bodipy-positive cells,[4],8.69 ± 2.4%
CCOc1ccc(Cc2nccc3cc(OCC)c(OCC)cc23)cc1OCC [Ethaverine hydrochloride],percent Bodipy-positive cells,,9.12 ± 0.57%
same,percent Bodipy-positive cells,[2],23.68 ± 0.057%
Cc1cc(C)nc(NS(=O)(=O)c2ccc(NC(=S)NC(=O)COc3ccc(Br)cc3Cl)cc2)n1,percent Bodipy-positive cells,[3],27.3 ± 2.5%
same,percent Bodipy-positive cells,[2],31.9 ± 6%
"CCCCCC(=O)CC[C@H]1[C@H](O)CC(=O)[C@@H]1C/C=C\CCCC(=O)O [13,14-dihydro-15-keto Prostaglandin E2]",percent Bodipy-positive cells,[4],23.9 ± 12%
CC(C)c1nc(CN(C)C(=O)N[C@@H](CCN2CCOCC2)C(=O)N[C@H](CC[C@H](Cc2ccccc2)NC(=O)OCc2cncs2)Cc2ccccc2)cs1 [Cobicistat (GS-9350)],percent Bodipy-positive cells,[3],25.1 ± 3.5%
same,percent Bodipy-positive cells,[2],28.8 ± 7.3%
Nc1ccc(S(=O)(=O)O)cc1.Nc1ccc(S(=O)(=O)O)cc1.[Zn] [Sulfanilate zinc],percent Bodipy-positive cells,[5],8.07 ± 0.12%
C#C[C@]1(O)CC[C@H]2[C@@H]3CCC4=Cc5oncc5C[C@]4(C)[C@H]3CC[C@@]21C [Danazol],percent Bodipy-positive cells,,62 ± 4.8%
same,percent Bodipy-positive cells,library stock concentration: 5.9 mM,19.7% and 16.8%
same,percent Bodipy-positive cells,[2],13.7 ± 1.2%
C#C[C@]1(O)CC[C@H]2[C@@H]3CCC4=Cc5oncc5C[C@]4(C)[C@H]3CC[C@@]21C,percent Bodipy-positive cells,[2],71.6 ± 4.7%
Cc1cccc(-c2nn3c(c2-c2ccnc4ccc(C(N)=O)cc24)CCC3)n1,percent Bodipy-positive cells,[3],5.12 ± 2.9%
same,percent Bodipy-positive cells,[2],13.6 ± 7.3%
CCNC(=O)CCC/C=C\C[C@@H]1[C@@H](CC[C@@H](O)CCc2ccccc2)[C@H](O)C[C@@H]1O [Latanoprost ethyl amide],percent Bodipy-positive cells,[4],19.5 ± 6%
CCO/C(O)=C1\C(C)=NC(c2ccccc2)=C(C(=O)OCc2ccc([N+](=O)[O-])cc2)C1C#Cc1ccccc1 (centres undefined),percent Bodipy-positive cells,[2],9.01 ± 1.1%
COc1ccc(-c2cc(=O)c3c(OC)c(OC)c(OC)c(OC)c3o2)cc1 [Tangeretin],percent Bodipy-positive cells,[3],16.1 ± 0.67%
same,percent Bodipy-positive cells,[2],26.2 ± 14%
O=C(O)c1ccc(C=C2SC(=S)N(c3cccc(C(F)(F)F)c3)C2=O)cc1,percent Bodipy-positive cells,[3],28.9 ± 5.4%
same,percent Bodipy-positive cells,[2],22% and 9.38%
CN1C(C(=O)Nc2ccccn2)=C(O)c2sc(Cl)cc2S1(=O)=O [Lornoxicam],percent Bodipy-positive cells,[3],13.4 ± 2.9%
same,percent Bodipy-positive cells,[2],13.2 ± 4.6%
CN1C(C(=O)Nc2ccccn2)=C(O)c2sc(Cl)cc2S1(=O)=O,percent Bodipy-positive cells,[2],27.6 ± 4.8%
CC12CC3CC(C)(C1)CC(N)(C3)C2 [Memantine HCl],percent Bodipy-positive cells,[3],18.8 ± 8.6%
same,percent Bodipy-positive cells,[2],53.8 ± 5.6%
CC12CC3CC(C)(C1)CC(N)(C3)C2 [Memantine hydrochloride],percent Bodipy-positive cells,library stock concentration: 9.3 mM,69.1 ± 0.94%
CC12CC3CC(C)(C1)CC(N)(C3)C2 [Memantine Hydrochloride],percent Bodipy-positive cells,,47.5 ± 11%
CC12CC3CC(C)(C1)CC(N)(C3)C2,percent Bodipy-positive cells,[2],65.4 ± 1.5%
Cc1ccc(CNc2ncnc3ccc(-c4ccc(CO)o4)cc23)o1,percent Bodipy-positive cells,[3],32.5 ± 11%
same,percent Bodipy-positive cells,[2],35.3 ± 17%
CCC[C@@H]1C[C@@H](C(=O)N[C@@H]([C@H]2O[C@H](SC)[C@H](O)[C@@H](O)[C@H]2O)[C@@H](C)O)N(C)C1 [Lincomycin],percent Bodipy-positive cells,[5],9.58 ± 3.8%
CCC[C@@H]1C[C@@H](C(=O)N[C@@H]([C@H]2O[C@H](SC)[C@H](O)[C@@H](O)[C@H]2O)[C@@H](C)O)N(C)C1 [Lincomycin hydrochloride],percent Bodipy-positive cells,,25.2 ± 8.8%
same,percent Bodipy-positive cells,library stock concentration: 4.5 mM,2.96 ± 0.12%
same,percent Bodipy-positive cells,[2],15.5 ± 2.8%
CCC[C@@H]1C[C@@H](C(=O)N[C@@H]([C@H]2O[C@H](SC)[C@H](O)[C@@H](O)[C@H]2O)[C@@H](C)O)N(C)C1 [Lincomycin HCl],percent Bodipy-positive cells,[3],7.53 ± 2.7%
same,percent Bodipy-positive cells,[2],14.7 ± 2.2%
N#Cc1c(Oc2ccc(F)c(NC(=O)Cc3cccc(C(F)(F)F)c3)c2)ccc2nc(NC(=O)C3CC3)sc12,percent Bodipy-positive cells,[1],9.3 ± 2.7%
same,percent Bodipy-positive cells,library stock concentration: 400 uM,7.87 ± 1.1%
same,percent Bodipy-positive cells,library stock concentration: 2 mM,10.1 ± 1.4%
same,percent Bodipy-positive cells,[3],30 ± 1.4%
"CCCCC(C)(C)[C@H](O)/C=C/[C@@H]1[C@@H](C/C=C\CCCC(=O)O)[C@@H](O)C[C@H]1O [16,16-dimethyl Prostaglandin F2.alpha.]",percent Bodipy-positive cells,[4],17.7 ± 2.7%
CN1CCCN=C1/C=C/c1cccs1 [Pyrantel tartrate],percent Bodipy-positive cells,,30 ± 4.3%
CN1CCCN=C1/C=C/c1cccs1 [Pyrantel pamoate],percent Bodipy-positive cells,[2],5.77 ± 0.7%
CO[C@H]1C[C@@H]2CC[C@@H](C)[C@@](O)(O2)C(=O)C(=O)N2CCCC[C@H]2C(=O)O[C@H]([C@H](C)C[C@@H]2CC[C@@H](OC(=O)C(C)(CO)CO)[C@H](OC)C2)CC(=O)[C@H](C)/C=C(\C)[C@@H](O)[C@@H](OC)C(=O)[C@H](C)C[C@H](C)/C=C/C=C/C=C/1C,percent Bodipy-positive cells,[3],6 ± 1.7%
same,percent Bodipy-positive cells,[2],10.9 ± 1.6%

# Some of the entries so far, as tab-separated lines:
compound	measurement	setting	value
Cc1cccc(N(C)C(=S)Oc2ccc3ccccc3c2)c1 [Tolnaftate]	percent Bodipy-positive cells	[3]	11.9 ± 0.27%
same	percent Bodipy-positive cells	[2]	18.4% and 22.6%
C=CCNC1=C2C[C@@H](C)C[C@H](OC)[C@H](O)[C@@H](C)/C=C(\C)[C@H](OC(N)=O)[C@@H](OC)/C=C\C=C(/C)C(=O)NC(=CC1=O)C2=O [17-AAG (Tanespimycin)]	percent Bodipy-positive cells	[3]	73.2 ± 7.5%
N[C@@H](COP(=O)(O)O)C(=O)O [O-Phospho-L-serine]	percent Bodipy-positive cells	[2]	20.9 ± 2.5%
N[C@@H](COP(=O)(O)O)C(=O)O	percent Bodipy-positive cells	[2]	27.7 ± 8.1%
CCCCc1oc2ccccc2c1C(=O)c1cc(I)c(OCCN(CC)CC)c(I)c1 [Amiodarone hydrochloride]	percent Bodipy-positive cells		60.7 ± 3%
